# PubChem BioAssay AID1224830, NIAID – 2016
# Aim: 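Host factors that control LPS-induced TNF expression in human macrophages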 (primary screen)
# Cell system: human THP-1 monocytic leukaemia cells, TNF dual-luciferase reporter clone, PMA-differentiated to macrophage-like cells
# Reagents: siRNA pool against human genes, 50 nM
# Duration: LPS for 4 h, given about 3 days after siRNA transfection
# Challenge: bacterial LPS (TLR4 ligand), 10 ng/ml
# Detection: 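Ratio of firefly to renilla light, scaled to the plate median and expressed as a robust z-score per replicate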
# Scale: TNF reporter robust z-score: higher = stronger TNF reporter response to LPS
# Call rule: 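Each well counts as active if its z-score is over 2.8 or under -1.5; controls are left without a call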
# This is a random part of about 18,000 deposited reagents. In the full data, about 2,900 (16%) got an active call. 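Calls are made per well; low scores hint the gene aids the LPS response, high scores that it dampens it.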 Repeated entries: four replicate wells of each siRNA pool.
gene symbol,PubChem SID,TNF reporter robust z-score,Outcome
NLRC4,SID315458626,-0.17,inactive
NLRC4,SID315458626,-1.76,active
NLRC4,SID315458626,-0.86,inactive
NLRC4,SID315458626,-0.76,inactive
TGFBI,SID315451852,1.68,inactive
TGFBI,SID315451852,0.5,inactive
TGFBI,SID315451852,0.81,inactive
TGFBI,SID315451852,-0.12,inactive
ETFDH,SID315448573,-0.33,inactive
ETFDH,SID315448573,0.78,inactive
ETFDH,SID315448573,0.55,inactive
ETFDH,SID315448573,0.28,inactive
IPO7,SID315454163,-1.01,inactive
IPO7,SID315454163,0.42,inactive
IPO7,SID315454163,-1.31,inactive
IPO7,SID315454163,-0.17,inactive
LRATD2,SID315462626,-1.05,inactive
LRATD2,SID315462626,-1.01,inactive
LRATD2,SID315462626,-1.25,inactive
LRATD2,SID315462626,-1.24,inactive
H1-4,SID315449132,-0.61,inactive
H1-4,SID315449132,-1.09,inactive
H1-4,SID315449132,0.14,inactive
H1-4,SID315449132,-0.2,inactive
PLA1A,SID315456672,0.59,inactive
PLA1A,SID315456672,1.21,inactive
PLA1A,SID315456672,1.67,inactive
DCUN1D1,SID315456973,-0.95,inactive
DCUN1D1,SID315456973,0.46,inactive
DCUN1D1,SID315456973,-0.4,inactive
DCUN1D1,SID315456973,-0.52,inactive
BAHD1,SID315454852,-0.56,inactive
BAHD1,SID315454852,-0.76,inactive
BAHD1,SID315454852,-0.42,inactive
BAHD1,SID315454852,-0.82,inactive
MAP3K1,SID315449937,-0.17,inactive
MAP3K1,SID315449937,0.29,inactive
MAP3K1,SID315449937,-0.2,inactive
MAP3K1,SID315449937,0.09,inactive
MAP3K1,SID315449937,0.55,inactive
MAP3K1,SID315449937,0.4,inactive
MAP3K1,SID315449937,0.57,inactive
MAP3K1,SID315449937,0.54,inactive
RPGR,SID315451164,0.37,inactive
RPGR,SID315451164,0.49,inactive
RPGR,SID315451164,-0.55,inactive
RPGR,SID315451164,-0.39,inactive
GGTLC2,SID315460893,1.58,inactive
GGTLC2,SID315460893,-0.64,inactive
GGTLC2,SID315460893,-0.18,inactive
GGTLC2,SID315460893,-0.3,inactive
EP400,SID315458516,-0.61,inactive
EP400,SID315458516,-0.86,inactive
EP400,SID315458516,-0.01,inactive
EP400,SID315458516,-0.82,inactive
SLCO6A1,SID315461945,-0.96,inactive
SLCO6A1,SID315461945,-0.28,inactive
SLCO6A1,SID315461945,-0.23,inactive
SLCO6A1,SID315461945,0.04,inactive
THBS3,SID315451865,0.06,inactive
THBS3,SID315451865,0.59,inactive
THBS3,SID315451865,-0.81,inactive
THBS3,SID315451865,-0.76,inactive
PCDHA4,SID315458025,-1.7,active
PCDHA4,SID315458025,-1.99,active
PCDHA4,SID315458025,-2.01,active
PCDHA4,SID315458025,-1.62,active
ZNF37A,SID315452216,0.34,inactive
ZNF37A,SID315452216,1.02,inactive
ZNF37A,SID315452216,0.84,inactive
ZNF37A,SID315452216,0.09,inactive
IFNGR2,SID315449425,0.89,inactive
IFNGR2,SID315449425,1.63,inactive
IFNGR2,SID315449425,1,inactive
IFNGR2,SID315449425,2.05,inactive
EPHA1,SID315448526,-0.1,inactive
EPHA1,SID315448526,-1.04,inactive
EPHA1,SID315448526,-0.05,inactive
EPHA1,SID315448526,0.86,inactive
B4GALNT3,SID315463663,-0.84,inactive
B4GALNT3,SID315463663,1.33,inactive
B4GALNT3,SID315463663,-0.58,inactive
B4GALNT3,SID315463663,0.32,inactive
TDP1,SID315457846,-1.26,inactive
TDP1,SID315457846,-0.93,inactive
TDP1,SID315457846,-0.5,inactive
TDP1,SID315457846,-1.1,inactive
CACNA1G,SID315452925,0.21,inactive
CACNA1G,SID315452925,1.69,inactive
CACNA1G,SID315452925,-0.3,inactive
CACNA1G,SID315452925,0.57,inactive
CFAP57,SID315462414,1.24,inactive
CFAP57,SID315462414,1.51,inactive
CFAP57,SID315462414,1.87,inactive
CFAP57,SID315462414,0.49,inactive
REM1,SID315456073,-1.34,inactive
REM1,SID315456073,-1.32,inactive
REM1,SID315456073,0.02,inactive
REM1,SID315456073,-0.42,inactive
KRT84,SID315449712,0.03,inactive
KRT84,SID315449712,0.17,inactive
KRT84,SID315449712,-1.21,inactive
KRT84,SID315449712,-0.06,inactive
SSR3,SID315451650,-0.38,inactive
SSR3,SID315451650,0.96,inactive
SSR3,SID315451650,0.84,inactive
SSR3,SID315451650,0.8,inactive
KRT23,SID315455597,3.54,active
KRT23,SID315455597,1.51,inactive
KRT23,SID315455597,3.5,active
KRT23,SID315455597,-0.37,inactive

Copied from above for reference:
gene symbol,PubChem SID,TNF reporter robust z-score,Outcome
LRATD2,SID315462626,-1.05,inactive
LRATD2,SID315462626,-1.01,inactive
LRATD2,SID315462626,-1.25,inactive
LRATD2,SID315462626,-1.24,inactive
H1-4,SID315449132,-0.61,inactive
H1-4,SID315449132,-1.09,inactive
H1-4,SID315449132,0.14,inactive
H1-4,SID315449132,-0.2,inactive
PLA1A,SID315456672,0.59,inactive
